# According to PubChem BioAssay AID2685 (National Center for Advancing Translational Sciences (NCATS), 2010):
# This is one part of the list. The main result of the screen is listed elsewhere. These columns were measured beside it and carry no call. Compounds called inactive in the main read-out are mostly missing here. Potencies come from curve fits of mixed quality, noted in brackets.
# Assay: qHTS Assay for Lipid Storage Modulators in Drosophila S3 Cells;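 for cell number change: cells counted by Cell Tracker Red CMTPX staining in the red channel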
# Conditions: BODIPY lipid droplet fluorescence, 18-24 h; for cell number change: measured here: cell count max response, cells fed with added oleic acid
# In short: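 Drosophila S3 cells got compounds at several concentrations plus oleic acid (400 uM solution). Laser-scanning cytometry with 488 nm excitation read lipid droplets at 500-530 nm and cells at 575-640 nm. Percent activity was relative to 20 uM Triacsin C.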
# [1] = measured here: lipid fluorescence (Fed channel) AC50, cells fed with added oleic acid
# [2] = measured here: cell number channel AC50, cells fed with added oleic acid
structure (smiles),measurement,setting,value
C/C(CC(=O)NCc1ccco1)=N\NC(=O)CC#N,cell number change,,-14%
same,AC50,[1],"0.0731 µM [falling, full curve, poor fit]"
C=CCn1c(=O)c2ccccc2n2c(SCC(=O)Nc3cc(C)on3)nnc12,cell number change,,212%
same,AC50,[2],"0.461 µM [rising, full curve, poor fit]"
same,AC50,[1],"0.517 µM [rising, full curve]"
N/C(=N\OC(=O)c1ccccc1F)c1cccc([N+](=O)[O-])c1,cell number change,,1.72%
CC(C)n1c(SC2CCOC2=O)nc2ccccc21 (stereo not given),cell number change,,7.82%
same,AC50,[1],"23.1 µM [falling, partial curve]"
CCOCCn1c(=O)c2c(nc3n2CCN3c2ccc(C)c(C)c2)n(C)c1=O,cell number change,,20.6%
same,AC50,[1],"32.6 µM [rising, single point]"
Cc1cc(=O)oc2c3c(cc(OCC(=O)N[C@@H](CC(C)C)C(=O)O)c12)OC(C)(C)CC3,cell number change,,27.9%
same,AC50,[2],"0.0164 µM [rising, full curve, poor fit]"
same,AC50,[1],"4.11 µM [rising, full curve]"
COc1ccc(C2SCC(=O)N2c2ccc(OC)cc2)cc1 (stereo not given),cell number change,,13%
same,AC50,[1],"0.291 µM [rising, full curve, poor fit]"
CCOc1cc(C2C(C#N)=C(N)Oc3n[nH]c(-c4ccccc4)c32)ccc1O (stereo not given),cell number change,,-16.9%
same,AC50,[1],"9.2 µM [falling, partial curve]"
C=CCn1c(=NC(=O)c2ccco2)sc2cc(C(=O)OCC)ccc21,cell number change,,3.15%
same,AC50,[1],"25.9 µM [rising, partial curve, poor fit]"
COc1ccccc1Nc1nnc(SCC(=O)NC2CCCC2)s1,cell number change,,-2.63%
same,AC50,[1],"29.1 µM [falling, single point]"
O=C(CCc1nc2ccccc2s1)OCC(=O)c1ccc[nH]1,cell number change,,4.22%
same,AC50,[2],"0.058 µM [falling, full curve]"
same,AC50,[1],"0.164 µM [falling, full curve]"
COc1ccc(-c2c(-c3ccc(O)cc3O)n[nH]c2C(F)(F)F)cc1,cell number change,,-54.7%
same,AC50,[2],"32.6 µM [falling, single point]"
same,AC50,[1],"25.9 µM [falling, partial curve]"
CCOC(=O)[C@H]1[C@H]2COc3ccc(Cl)cc3[C@@H]2N2C(=O)CN(Cc3ccc(C)cc3)C(=O)[C@@]12C,cell number change,,12.4%
same,AC50,[1],"1.64 µM [rising, partial curve]"
CC(=O)Nc1ccc(-n2c(C)nc(=O)c(-c3ccccc3)c2C)cc1,AC50,[1],"29.1 µM [falling, single point]"
Cc1ccc(S(=O)(=O)N2CCC(NC(=O)c3cccc(C)c3)CC2)cc1,cell number change,,24.2%
same,AC50,[1],"0.411 µM [falling, single point]"
CCOC(=O)c1oc2ccccc2c1COC(=O)C(C)NC(=O)c1ccco1 (stereo not given),cell number change,,-25.9%
same,AC50,[1],"23.1 µM [falling, single point]"
Cc1ccc(NC(=O)CSCc2cc(=O)n3ccsc3n2)c(C)c1,cell number change,,40.2%
same,AC50,[2],"8.2 µM [rising, partial curve]"
same,AC50,[1],"29.1 µM [rising, partial curve]"
O=C(c1ccc(Cl)c(Cl)c1)c1cc(-c2ccccn2)c(N2CCOCC2)s1,cell number change,,10.9%
same,AC50,[1],"16.4 µM [falling, single point]"
Cc1c(Cl)c([N+](=O)[O-])nn1CCCC(=O)Nc1c(Cl)cccc1Cl,cell number change,,5.3%
same,AC50,[1],"2.31 µM [rising, partial curve]"
CCCCCCc1c(C)c2ccc(OCC(=O)N3CCC[C@H]3C(=O)O)c(C)c2oc1=O,cell number change,,2.7%
CCC(=O)c1cn(CC(=O)NCc2cccnc2)c2ccccc12,cell number change,,34.9%
same,AC50,[2],"29.1 µM [rising, single point]"
CCOc1ccccc1CN1CCNC(=O)C1CC(=O)N(C)Cc1cnccn1 (stereo not given),cell number change,,29.2%
same,AC50,[1],"29.1 µM [rising, single point]"
CC(OC(=O)/C=C/c1ccccc1)C(=O)Nc1ccc(C(N)=O)cc1 (stereo not given),cell number change,,2.2%
Cc1ccc(S(=O)(=O)N2CCCCC2)cc1NC(=O)COC(=O)c1c(F)cccc1F,AC50,[2],"6.51 µM [falling, single point]"
COc1ccc(C(=O)O)cc1NC(=S)NC(=O)Cc1ccc(Cl)cc1,cell number change,,-5.56%
same,AC50,[1],"6.51 µM [falling, single point]"
CCn1c(SCC(=O)NCc2ccc3c(c2)OCO3)nnc1-c1c[nH]c2ccccc12,cell number change,,-15.4%
same,AC50,[1],"9.2 µM [falling, partial curve, poor fit]"
Cc1ccc(NC(=O)c2ccc(Nc3c([N+](=O)[O-])cc([N+](=O)[O-])cc3[N+](=O)[O-])cc2)cc1,cell number change,,-64.1%
same,AC50,[2],"29.1 µM [falling, single point]"
same,AC50,[1],"29.1 µM [rising, single point]"
Cc1cccc(NC(=O)CNC(=O)c2cccc(S(=O)(=O)NCc3cccs3)c2)c1C,cell number change,,16%
same,AC50,[1],"0.651 µM [rising, full curve, poor fit]"
CCOC(=O)c1csc(N)n1,cell number change,,-15.5%
same,AC50,[1],"23.1 µM [falling, partial curve, poor fit]"
Cc1cc(NC(=S)N(Cc2ccc(Cl)cc2)Cc2ccc(C(=O)O)cc2)ccc1Cl,cell number change,,-1.09%
COc1ccc(N2CCN(CCCn3c(=S)[nH]c4ncccc4c3=O)CC2)cc1,cell number change,,2.55%
same,AC50,[1],"32.6 µM [rising, partial curve, poor fit]"
O=C(c1ccc(F)cc1)N1CCN(c2ccccn2)CC1,cell number change,,-1.09%
same,AC50,[2],"1.64 µM [rising, partial curve, poor fit]"
same,AC50,[1],"3.66 µM [rising, full curve]"
CN(C)CCCOC(=O)CCc1ccccc1,cell number change,,-32%
same,AC50,[2],"0.184 µM [falling, full curve]"
same,AC50,[1],"0.206 µM [falling, full curve]"
Cc1c(/C=C/C(=O)c2ccc(C(C)C)cc2)cnn1C,cell number change,,-51.8%
same,AC50,[2],"0.651 µM [falling, full curve]"
same,AC50,[1],"29.1 µM [falling, single point]"
COc1cccc(-c2nc3cc(C)ccc3o2)c1,cell number change,,-40.9%
same,AC50,[2],"23.1 µM [falling, partial curve, poor fit]"
same,AC50,[1],"10.3 µM [falling, partial curve]"
CCC(C)c1c(O)nc(SCC(=O)Nc2ccccc2)[nH]c1=O (stereo not given),cell number change,,18.1%
same,AC50,[1],"0.116 µM [falling, full curve, poor fit]"
Cc1ccc(C(=S)NCS(=O)(=O)c2ccc(C)cc2)cc1,cell number change,,3.45%
same,AC50,[1],"29.1 µM [rising, single point]"
CCC(C)NC(=O)CSc1nc2cc(S(=O)(=O)N3CCOCC3)ccc2n1CC (stereo not given),cell number change,,4.84%
same,AC50,[2],"6.51 µM [falling, single point]"
COc1ccc(C(CNC(=O)c2ccc(C)o2)N2CCOCC2)cc1 (stereo not given),cell number change,,-100%
same,AC50,[2],"1.84 µM [falling, partial curve, poor fit]"
Cc1cc(C)n(-c2ncc(C#N)cn2)n1,cell number change,,-6.15%
same,AC50,[2],"0.92 µM [falling, full curve]"
Cc1ccc(S(=O)(=O)N2CCCC2C(=O)n2nc(C)cc2C)cc1 (stereo not given),cell number change,,-12.4%
CCOc1ccc(Oc2ccc(S(=O)(=O)N3CCOCC3)cc2N)cc1,cell number change,,9.74%
same,AC50,[2],"0.00517 µM [rising, full curve, poor fit]"
CCN(CC)c1ccc(NC(=O)c2ccc(Br)o2)cc1,cell number change,,-8.84%
CN(C)S(=O)(=O)c1ccc(Cl)c(NC(=O)COC(=O)[C@@H]2CCCN2C(=O)c2cccs2)c1,AC50,[2],"0.0731 µM [rising, full curve, poor fit]"
same,AC50,[1],"6.51 µM [rising, partial curve, poor fit]"
O=C(C1CCC(=O)N(C2CC2)C1)N1CCC(Oc2ccccc2F)CC1 (stereo not given),cell number change,,-22.3%
same,AC50,[1],"29.1 µM [rising, single point]"
O=c1c2ccccc2[nH]c(=S)n1CCCN1CCN(C2CCCCC2)CC1,cell number change,,27%
O=C(CNC(=O)c1ccccc1Cl)Nc1ccncc1,cell number change,,9.83%
same,AC50,[1],"0.731 µM [rising, single point]"
CCCCn1c(N)c(N(CCOC)C(=O)C2CCCN(C(=O)c3ccc(Cl)cc3)C2)c(=O)[nH]c1=O (stereo not given),cell number change,,-19.9%
CCc1cccc(CC)c1NC(=S)NCCc1ccc(O)c(O)c1,cell number change,,-10.3%
Cc1cc(C)cc(S(=O)(=O)c2cn(C)c3cc(N4CCN(C)CC4)c(F)cc3c2=O)c1,cell number change,,-23.6%
same,AC50,[1],"29.1 µM [rising, single point]"
Cc1cccc(N2CCN(c3ccc4cc(S(=O)(=O)N5CCCCC5)ccc4n3)CC2C)c1 (stereo not given),cell number change,,-1.83%
same,AC50,[1],"2.06 µM [rising, partial curve]"
CCOC(=O)c1ccc(NC2c3ccccc3C(=O)N2c2ccccn2)cc1 (stereo not given),cell number change,,32.8%
same,AC50,[2],"8.2 µM [rising, partial curve]"
COc1ccc(C(c2nnnn2CCc2ccccc2)N2CCN(C3CCCC3)CC2)cc1OC (stereo not given),cell number change,,5.81%
same,AC50,[1],"0.231 µM [falling, full curve, poor fit]"
Cc1cccc(C)c1OCc1n[nH]c(=S)n1-c1ccccc1,AC50,[1],"4.11 µM [falling, partial curve, poor fit]"
COc1ccc(C(=O)Nc2ccc(C)cn2)c(OC)c1,AC50,[2],"4.11 µM [rising, single point]"
CN(C)S(=O)(=O)N1CCC(C(=O)O)(c2ccccc2)CC1,AC50,[2],"6.51 µM [falling, single point]"
CCCCN(C)C1=CC2=CC(=C(C#N)C#N)CCC2CC1 (stereo not given),cell number change,,-97.6%
same,AC50,[2],"1.3 µM [falling, partial curve]"
same,AC50,[1],"0.366 µM [falling, full curve]"
Cc1c(C(=O)NNC(=O)c2csc(N3CCOCC3)n2)cccc1[N+](=O)[O-],cell number change,,2.72%
same,AC50,[1],"14.6 µM [rising, partial curve, poor fit]"
Cc1occc1-c1nnc(SCC(=O)NC2(C#N)CCCC2)n1C,AC50,[2],"0.13 µM [falling, partial curve, poor fit]"
same,AC50,[1],"18.4 µM [falling, partial curve]"

# Five entries from above, as tab-separated lines.
structure (smiles)	measurement	setting	value
CCOC(=O)c1ccc(NC2c3ccccc3C(=O)N2c2ccccn2)cc1 (stereo not given)	AC50	[2]	8.2 µM [rising, partial curve]
COc1ccc(C(c2nnnn2CCc2ccccc2)N2CCN(C3CCCC3)CC2)cc1OC (stereo not given)	cell number change		5.81%
same	AC50	[1]	0.231 µM [falling, full curve, poor fit]
Cc1cccc(C)c1OCc1n[nH]c(=S)n1-c1ccccc1	AC50	[1]	4.11 µM [falling, partial curve, poor fit]
COc1ccc(C(=O)Nc2ccc(C)cn2)c(OC)c1	AC50	[2]	4.11 µM [rising, single point]
